{"source": "paper doi:10.1101/2022.04.26.489513", "binders": {"B1": {"name": "Tom22 (protein, UniProt P49334 1-152)", "chain": "MVELTEIKDDVVQLDEPQFSRNQAIVEEKASATNNDVVDDEDDSDSDFEDEFDENETLLDRIVALKDIVPPGKRQTISNFFGFTSSFVRNAFTKSGNLAWTLTTTALLLGVPLSLSILAEQQLIEMEKTFDLQSDANNILAQGEKDAAATAN"}}, "target": "T1, Tom40 (S. cerevisiae (endogenous in yeast mitochondria)) (UniProt P23644)", "T1 sequence": "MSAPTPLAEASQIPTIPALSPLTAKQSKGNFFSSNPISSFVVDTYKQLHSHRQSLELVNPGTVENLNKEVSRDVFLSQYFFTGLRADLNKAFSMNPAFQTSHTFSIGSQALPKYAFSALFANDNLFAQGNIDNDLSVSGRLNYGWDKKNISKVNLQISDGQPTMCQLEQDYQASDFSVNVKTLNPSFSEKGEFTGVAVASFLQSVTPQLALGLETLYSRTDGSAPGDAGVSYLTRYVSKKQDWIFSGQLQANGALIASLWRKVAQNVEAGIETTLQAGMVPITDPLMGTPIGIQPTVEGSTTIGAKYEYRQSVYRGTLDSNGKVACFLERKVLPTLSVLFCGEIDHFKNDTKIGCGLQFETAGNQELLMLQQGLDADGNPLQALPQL", "test": "native gel or EMSA", "note": "No constants are given. Whether binding was seen depends on the method and setting. Some results given as binding are weak or reduced against the parent protein; the word gives no strength.", "data": [{"binder": "B1", "values": [{"measurement": "binding", "value": "binds"}]}]}
